Results are given in words; binding and its absence hold for the method and conditions named. Binding seen in cells or lysates may run through a third protein. Some entries that bind do so weakly or less than the wild type. Where a sequence is shown, tags or fusion partners need not be part of it.
How the values were obtained:
GFP-GAK = molecular target: T1, GFP-GAK (UniProt O14976); experiment: co-IP
T1 sequence: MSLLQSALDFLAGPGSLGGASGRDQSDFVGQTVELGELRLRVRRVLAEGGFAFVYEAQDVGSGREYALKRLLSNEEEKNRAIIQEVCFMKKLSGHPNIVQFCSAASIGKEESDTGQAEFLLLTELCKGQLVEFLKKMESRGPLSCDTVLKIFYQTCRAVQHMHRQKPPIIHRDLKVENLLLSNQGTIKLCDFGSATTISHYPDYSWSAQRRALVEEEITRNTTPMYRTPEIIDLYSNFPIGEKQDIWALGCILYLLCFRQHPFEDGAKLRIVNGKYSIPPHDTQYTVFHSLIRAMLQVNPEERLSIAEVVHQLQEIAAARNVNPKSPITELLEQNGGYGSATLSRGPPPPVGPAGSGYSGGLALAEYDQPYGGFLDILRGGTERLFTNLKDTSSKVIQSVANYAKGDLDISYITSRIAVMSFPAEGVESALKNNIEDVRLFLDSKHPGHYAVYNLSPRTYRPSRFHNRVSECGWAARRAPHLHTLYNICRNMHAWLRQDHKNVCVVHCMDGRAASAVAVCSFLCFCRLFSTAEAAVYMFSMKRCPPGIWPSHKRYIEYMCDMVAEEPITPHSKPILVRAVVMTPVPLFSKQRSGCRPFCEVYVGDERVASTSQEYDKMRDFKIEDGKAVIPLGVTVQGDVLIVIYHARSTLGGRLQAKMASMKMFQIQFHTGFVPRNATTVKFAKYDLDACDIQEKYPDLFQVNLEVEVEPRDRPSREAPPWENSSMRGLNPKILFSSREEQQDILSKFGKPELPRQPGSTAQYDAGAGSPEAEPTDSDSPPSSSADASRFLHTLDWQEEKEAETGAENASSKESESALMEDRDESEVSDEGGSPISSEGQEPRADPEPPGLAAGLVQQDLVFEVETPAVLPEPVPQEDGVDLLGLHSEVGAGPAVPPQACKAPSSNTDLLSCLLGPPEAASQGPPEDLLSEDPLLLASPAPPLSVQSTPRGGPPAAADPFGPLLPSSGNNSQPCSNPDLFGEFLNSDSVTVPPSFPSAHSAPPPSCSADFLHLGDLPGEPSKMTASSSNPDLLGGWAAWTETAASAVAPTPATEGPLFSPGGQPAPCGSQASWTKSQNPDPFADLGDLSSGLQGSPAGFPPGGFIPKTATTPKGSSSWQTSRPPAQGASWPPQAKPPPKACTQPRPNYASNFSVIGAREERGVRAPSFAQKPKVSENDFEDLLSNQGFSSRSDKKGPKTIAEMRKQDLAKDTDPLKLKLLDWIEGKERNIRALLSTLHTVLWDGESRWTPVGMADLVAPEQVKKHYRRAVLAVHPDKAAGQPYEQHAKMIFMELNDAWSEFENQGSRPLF

[1] = molecular target: T2, GFP-Auxilin (wild type, human) (human) (UniProt O75061); experiment: co-IP
T2 sequence: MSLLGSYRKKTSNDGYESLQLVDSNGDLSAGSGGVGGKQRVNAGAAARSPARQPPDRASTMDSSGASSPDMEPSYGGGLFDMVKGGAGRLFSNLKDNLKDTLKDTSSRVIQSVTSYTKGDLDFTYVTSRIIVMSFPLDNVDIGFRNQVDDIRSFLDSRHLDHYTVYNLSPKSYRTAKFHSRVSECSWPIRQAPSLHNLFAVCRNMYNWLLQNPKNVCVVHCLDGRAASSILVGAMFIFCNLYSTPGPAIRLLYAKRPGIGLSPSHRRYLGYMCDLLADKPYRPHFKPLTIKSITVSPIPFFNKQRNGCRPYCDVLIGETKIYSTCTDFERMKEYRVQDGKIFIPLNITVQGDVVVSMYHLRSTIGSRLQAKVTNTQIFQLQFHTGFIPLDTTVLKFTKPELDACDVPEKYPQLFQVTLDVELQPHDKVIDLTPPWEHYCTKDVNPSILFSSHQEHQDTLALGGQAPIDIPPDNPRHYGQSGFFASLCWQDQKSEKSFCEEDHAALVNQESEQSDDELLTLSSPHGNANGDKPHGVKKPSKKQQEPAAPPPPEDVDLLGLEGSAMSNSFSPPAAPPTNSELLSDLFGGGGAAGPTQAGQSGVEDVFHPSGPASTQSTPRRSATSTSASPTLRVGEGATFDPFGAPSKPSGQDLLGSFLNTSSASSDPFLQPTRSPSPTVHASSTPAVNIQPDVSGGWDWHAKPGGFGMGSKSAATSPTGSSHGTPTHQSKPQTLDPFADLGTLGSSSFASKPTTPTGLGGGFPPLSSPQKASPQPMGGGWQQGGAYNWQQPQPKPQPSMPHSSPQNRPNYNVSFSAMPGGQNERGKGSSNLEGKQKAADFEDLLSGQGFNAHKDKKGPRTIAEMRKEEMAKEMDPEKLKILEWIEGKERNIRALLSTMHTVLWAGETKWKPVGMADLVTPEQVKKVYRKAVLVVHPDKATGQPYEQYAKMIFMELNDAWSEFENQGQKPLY

B1: GGA3, endogenous in HEK293FT (protein, UniProt Q9NZ52 1-723)
chain: MAEAEGESLESWLNKATNPSNRQEDWEYIIGFCDQINKELEGPQIAVRLLAHKIQSPQEWEALQALTVLEACMKNCGRRFHNEVGKFRFLNELIKVVSPKYLGDRVSEKVKTKVIELLYSWTMALPEEAKIKDAYHMLKRQGIVQSDPPIPVDRTLIPSPPPRPKNPVFDDEEKSKLLAKLLKSKNPDDLQEANKLIKSMVKEDEARIQKVTKRLHTLEEVNNNVRLLSEMLLHYSQEDSSDGDRELMKELFDQCENKRRTLFKLASETEDNDNSLGDILQASDNLSRVINSYKTIIEGQVINGEVATLTLPDSEGNSQCSNQGTLIDLAELDTTNSLSSVLAPAPTPPSSGIPILPPPPQASGPPRSRSSSQAEATLGPSSTSNALSWLDEELLCLGLADPAPNVPPKESAGNSQWHLLQREQSDLDFFSPRPGTAACGASDAPLLQPSAPSSSSSQAPLPPPFPAPVVPASVPAPSAGSSLFSTGVAPALAPKVEPAVPGHHGLALGNSALHHLDALDQLLEEAKVTSGLVKPTTSPLIPTTTPARPLLPFSTGPGSPLFQPLSFQSQGSPPKGPELSLASIHVPLESIKPSSALPVTAYDKNGFRILFHFAKECPPGRPDVLVVVVSMLNTAPLPVKSIVLQAAVPKSMKVKLQPPSGTELSPFSPIQPPAAITQVMLLANPLKEKVRLRYKLTFALGEQLSTEVGEVDQFPPVEQWGNL
Q: Which results are given for B1?
A: binding (GFP-GAK): no binding; binding [1]: binds weakly

Source: paper doi:10.1101/830802
